These are yes or no findings as the source states them, for the method shown. For some assays here: Binding seen in cells or lysates may run through a third protein. Some entries that bind do so weakly or less than the wild type.
What was measured:
[1] = molecular target: 14-3-3ε (mouse (endogenous in ddY mouse cortical neurons)) (UniProt P62259); assay: co-IP; cortical neurons treated with 10 nM GPPGPAG or vehicle for 60 min at 37°C; lysate (30 μg) immunoprecipitated with anti-14-3-3ε antibody on Dynabeads Protein G; eluate dot blotted with anti-GPPGPAG antibody; only the binder purified
[2] = molecular target: 14-3-3ε (mouse (endogenous in ddY mouse cortical neurons)) (UniProt P62259); assay: DARTS (drug affinity responsive target stability); cortical neurons treated with 10 nM GPPGPAG or vehicle for 30 min at 37°C; lysate (3.1 μg protein) proteolysed with 0.5 μg thermolysin, 50 mM Tris-HCl pH 8.0, 50 mM NaCl, 10 mM CaCl2, 30 min at 37°C; SDS-PAGE, silver staining; changed band identified by nanoLC-MS/MS; only the binder purified

The chains behind the UniProt entries cited, without tags or fusion partners.
UniProt P62259: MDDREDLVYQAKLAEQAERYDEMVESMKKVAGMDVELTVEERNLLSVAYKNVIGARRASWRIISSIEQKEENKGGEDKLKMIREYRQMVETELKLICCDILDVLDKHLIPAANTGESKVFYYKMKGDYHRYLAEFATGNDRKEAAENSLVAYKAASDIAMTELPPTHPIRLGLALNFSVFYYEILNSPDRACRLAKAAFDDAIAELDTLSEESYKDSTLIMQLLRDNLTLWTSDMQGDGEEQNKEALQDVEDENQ

binding [1]: binds
binding [2]: binds
B1: GPPGPAG (peptide)
peptide: GPPGPAG

Source: PMC8160438, “A Novel Heptapeptide, GPPGPAG Transfers to the Brain, and Ameliorates Memory Dysfunction and Dendritic Atrophy in Alzheimer’s Disease Model Mice” (Frontiers in Pharmacology, 2021)
